Earlier results, collected in US20250114390A1, “MULTI-ACTIVE TABLET IN THE TREATMENT AND CONTROL OF SEVERE CHRONIC PAIN AND METHOD OF PREPARATION” (LABORATORIOS SILANES S.A. DE C.V., priority 2023, published 2025).
At least one read-out could not be matched to a standard name with certainty. At least one structure is not confirmed: it was looked up by name or label, or the drawing left a doubt.

Settings: cited from earlier work

Question: Which Biopharmaceutical classification does the source give for `Cc1ccc(-c2cc(C(F)(F)F)nn2-c2ccc(S(N)(=O)=O)cc2)cc1` [Celecoxib] here?
Answer: Its Biopharmaceutical classification is “Classification II”.

Question: What about the “Permeability (biopharmaceutical classification)” value of the same molecule?
Answer: The value was “high permeability”.
